One substance from paper PMC10967197 can be followed below.

Chains of the proteins cited; added tags and fusions are not shown.
UniProt Q9UKV8: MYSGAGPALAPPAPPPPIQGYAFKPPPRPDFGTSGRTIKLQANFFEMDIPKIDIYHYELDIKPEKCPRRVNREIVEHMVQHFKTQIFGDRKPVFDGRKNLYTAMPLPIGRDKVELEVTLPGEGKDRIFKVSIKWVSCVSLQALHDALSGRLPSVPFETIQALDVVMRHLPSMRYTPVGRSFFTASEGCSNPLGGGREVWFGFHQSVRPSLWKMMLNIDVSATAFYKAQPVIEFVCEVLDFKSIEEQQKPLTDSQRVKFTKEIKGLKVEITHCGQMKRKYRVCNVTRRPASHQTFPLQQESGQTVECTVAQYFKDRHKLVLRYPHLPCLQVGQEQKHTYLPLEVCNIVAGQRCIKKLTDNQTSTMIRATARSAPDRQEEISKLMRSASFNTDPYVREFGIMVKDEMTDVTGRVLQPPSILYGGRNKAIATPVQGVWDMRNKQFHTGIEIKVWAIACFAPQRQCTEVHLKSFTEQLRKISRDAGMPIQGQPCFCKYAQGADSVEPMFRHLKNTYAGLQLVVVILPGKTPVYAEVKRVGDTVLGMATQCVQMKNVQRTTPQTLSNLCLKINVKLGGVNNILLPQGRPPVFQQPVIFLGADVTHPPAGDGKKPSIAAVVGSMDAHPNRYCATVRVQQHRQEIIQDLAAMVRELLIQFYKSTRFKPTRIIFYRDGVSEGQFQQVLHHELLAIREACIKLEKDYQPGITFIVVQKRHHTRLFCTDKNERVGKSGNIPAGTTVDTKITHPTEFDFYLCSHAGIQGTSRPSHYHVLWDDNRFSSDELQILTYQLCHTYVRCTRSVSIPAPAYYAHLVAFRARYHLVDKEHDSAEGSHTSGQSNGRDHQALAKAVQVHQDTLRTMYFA
UniProt P11940: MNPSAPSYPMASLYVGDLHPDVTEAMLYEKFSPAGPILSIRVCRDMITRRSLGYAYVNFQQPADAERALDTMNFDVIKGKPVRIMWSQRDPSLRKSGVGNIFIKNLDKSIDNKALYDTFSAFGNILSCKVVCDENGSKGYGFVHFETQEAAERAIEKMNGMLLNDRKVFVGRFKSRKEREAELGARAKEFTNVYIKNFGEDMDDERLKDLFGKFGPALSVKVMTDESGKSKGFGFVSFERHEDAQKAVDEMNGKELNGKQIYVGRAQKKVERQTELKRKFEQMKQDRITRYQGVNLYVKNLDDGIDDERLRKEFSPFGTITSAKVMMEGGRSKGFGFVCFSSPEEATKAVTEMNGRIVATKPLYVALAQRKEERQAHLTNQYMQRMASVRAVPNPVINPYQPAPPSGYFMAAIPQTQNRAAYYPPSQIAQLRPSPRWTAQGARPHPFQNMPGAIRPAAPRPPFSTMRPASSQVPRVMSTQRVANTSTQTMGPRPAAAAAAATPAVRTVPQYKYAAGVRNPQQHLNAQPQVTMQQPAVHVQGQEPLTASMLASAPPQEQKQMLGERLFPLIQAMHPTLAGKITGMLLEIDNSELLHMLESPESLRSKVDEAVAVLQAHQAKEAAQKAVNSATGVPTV

In this test the target is Argonaute risk component 2 (human (endogenous in HUVECs)) (UniProt Q9UKV8). The experiment in a line: co-IP; primary and IgG antibodies cross-linked to protein A/G magnetic beads; lysate of 1 x 10^7 HUVECs incubated with the beads at 25 °C for 1 h; bound proteins identified by western blot. Background: Immunoblotting shows a protein as a band on a membrane.

These are yes or no findings as the source states them, for the method shown. Binding seen in cells or lysates may run through a third protein. Some entries that bind do so weakly or less than the wild type.

Take “Poly(A) binding protein cytoplasmic 1 (from UniProt P11940 1-636)”: the binding result was “binds”.
